In paper PMC10711656, “RZZ‐Spindly and CENP‐E form an integrated platform to recruit dynein to the kinetochore corona” (The EMBO Journal, 2023):
These are yes or no findings as the source states them, for the method shown. Some binding calls cover weakened binding; strength is not graded here.

Amino acid sequences for entries named in this document (tags omitted). Residues count along the entry.
UniProt O60566, residues 766-1050: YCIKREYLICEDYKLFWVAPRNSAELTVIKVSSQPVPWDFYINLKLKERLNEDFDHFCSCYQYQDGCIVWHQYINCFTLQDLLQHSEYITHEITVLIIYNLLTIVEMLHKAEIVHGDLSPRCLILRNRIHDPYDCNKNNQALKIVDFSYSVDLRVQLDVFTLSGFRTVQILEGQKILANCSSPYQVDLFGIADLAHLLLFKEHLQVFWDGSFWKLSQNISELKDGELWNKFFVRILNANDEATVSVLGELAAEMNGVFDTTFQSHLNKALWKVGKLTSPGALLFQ

B1: EGFP‐CENP‐E^2070C (domain or fragment, human, UniProt Q02224 2070-2701, looked up)
chain: RQNHQVKPEKRLLSDGQQHLTESLREKCSRIKELLKRYSEMDDHYECLNRLSLDLEKEIEFQKELSMRVKANLSLPYLQTKHIEKLFTANQRCSMEFHRIMKKLKYVLSYVTKIKEEQHESINKFEMDFIDEVEKQKELLIKIQHLQQDCDVPSRELRDLKLNQNMDLHIEEILKDFSESEFPSIKTEFQQVLSNRKEMTQFLEEWLNTRFDIEKLKNGIQKENDRICQVNNFFNNRIIAIMNESTEFEERSATISKEWEQDLKSLKEKNEKLFKNYQTLKTSLASGAQVNPTTQDNKNPHVTSRATQLTTEKIRELENSLHEAKESAMHKESKIIKMQKELEVTNDIIAKLQAKVHESNKCLEKTKETIQVLQDKVALGAKPYKEEIEDLKMKLVKIDLEKMKNAKEFEKEISATKATVEYQKEVIRLLRENLRRSQQAQDTSVISEHTDPQPSNKPLTCGGGSGIVQNTKALILKSEHIRLEKEISKLKQQNEQLIKQKNELLSNNQHLSNEVKTWKERTLKREAHKQVTCENSPKSPKVTGTASKKKQITPSQCKERNLQDPVPKESPKSCFFDSRSKSLPSPHPVRYFDNSSLGLCPEVQNAGAESVDSQPGPWHASSGKDVPECKTQ
notes: codon-optimised cDNA; The His6-EGFP tag is PreScission-cleavable, but no cleavage step is described; source: insect cells (biGBac; baculovirus from Sf9, expression in Tnao38), purified (HisTrap, Superdex 200); not shown: EGFP, N-terminal, kept
B2: EGFP‐CENP‐E^2366C (domain or fragment, human, UniProt Q02224 2366-2701, looked up)
chain: NKNPHVTSRATQLTTEKIRELENSLHEAKESAMHKESKIIKMQKELEVTNDIIAKLQAKVHESNKCLEKTKETIQVLQDKVALGAKPYKEEIEDLKMKLVKIDLEKMKNAKEFEKEISATKATVEYQKEVIRLLRENLRRSQQAQDTSVISEHTDPQPSNKPLTCGGGSGIVQNTKALILKSEHIRLEKEISKLKQQNEQLIKQKNELLSNNQHLSNEVKTWKERTLKREAHKQVTCENSPKSPKVTGTASKKKQITPSQCKERNLQDPVPKESPKSCFFDSRSKSLPSPHPVRYFDNSSLGLCPEVQNAGAESVDSQPGPWHASSGKDVPECKTQ
notes: source: E. coli BL21 (DE3) RP plus, purified (HisTrap FF, Superose 6); not shown: EGFP, N-terminal, kept
B3: mCherry‐Spindly (protein, UniProt Q96EA4 1-605)
chain: MEADIITNLRCRLKEAEEERLKAAQYGLQLVESQNELQNQLDKCRNEMMTMTESYEQEKYTLQREVELKSRMLESLSCECEAIKQQQKMHLEKLEEQLSRSHGQEVNELKTKIEKLKVELDEARLSEKQLKHQVDHQKELLSCKSEELRVMSERVQESMSSEMLALQIELTEMESMKTTLKEEVNELQYRQEQLELLITNLMRQVDRLKEEKEEREKEAVSYYNALEKARVANQDLQVQLDQALQQALDPNSKGNSLFAEVEDRRAAMERQLISMKVKYQSLKKQNVFNREQMQRMKLQIATLLQMKGSQTEFEQQERLLAMLEQKNGEIKHLLGEIRNLEKFKNLYDSMESKPSVDSGTLEDNTYYTDLLQMKLDNLNKEIESTKGELSIQRMKALFESQRALDIERKLFANERCLQLSESENMKLRAKLDELKLKYEPEETVEVPVLKKRREVLPVDITTAKDACVNNSALGGEVYRLPPQKEETQSCPNSLEDNNLQLEKSVSIYTPVVSLSPHKNLPVDMQLKKEKKCVKLIGVPADAEALSERSGNTPNSPRLAAESKLQTEVKEGKETSSKLEKETCKKLHPILYVSSKSTPETQCPQQ

Experiments:
BUBR1 kinase domain = BUBR1 kinase domain (UniProt O60566); assay: SEC; analytical SEC; 16 μM CENP-E proteins mixed with 8 μM BUBR1^KD in 30 μl; Superose 6 5/150 or Superdex 200 5/150; 50 mM HEPES pH 8.0, 100 mM NaCl, 5% glycerol, 0.5 mM TCEP; 4°C; fractions by SDS-PAGE; both purified
[1] = target: EGFP‐CENP‐E^2070C (human) (UniProt Q02224); assay: SEC; analytical SEC; Superdex 200 15/50; 50 mM HEPES pH 8.0, 150 mM NaCl, 2 mM TCEP; 4°C; mixed in 60 μl and kept at least 1 h on ice; PE 3 μM or CENP-E^2070C 20 μM with Spindly constructs 16 μM; both purified

Row | Molecule | binding (BUBR1 kinase domain) | binding [1]
1 | EGFP‐CENP‐E^2070–2365 (from UniProt Q02224 2070-2365) (domain or fragment) | binds | –
2 | B1 | binds | –
3 | B2 | no binding (tested: 16 μM CENP-E, 8 μM BUBR1^KD) | –
4 | B3 | – | no binding (tested: CENP‐E: 20 μM, Spindly constructs: 16 μM)
